No constants are given. Whether binding was seen depends on the method and setting. In cells and extracts the contact can be indirect. Some results given as binding are weak or reduced against the parent protein; the word gives no strength.
Target: tagged polycystin-1 (PC1-eGFP), product of the Pkd1^eGFP knock-in allele (mouse) (UniProt O08852)
Assay: co-IP

By UniProt entry, the sequences of proteins in these tests, tags left out. Residues count along the entry.
UniProt O08852, residues 24-4293: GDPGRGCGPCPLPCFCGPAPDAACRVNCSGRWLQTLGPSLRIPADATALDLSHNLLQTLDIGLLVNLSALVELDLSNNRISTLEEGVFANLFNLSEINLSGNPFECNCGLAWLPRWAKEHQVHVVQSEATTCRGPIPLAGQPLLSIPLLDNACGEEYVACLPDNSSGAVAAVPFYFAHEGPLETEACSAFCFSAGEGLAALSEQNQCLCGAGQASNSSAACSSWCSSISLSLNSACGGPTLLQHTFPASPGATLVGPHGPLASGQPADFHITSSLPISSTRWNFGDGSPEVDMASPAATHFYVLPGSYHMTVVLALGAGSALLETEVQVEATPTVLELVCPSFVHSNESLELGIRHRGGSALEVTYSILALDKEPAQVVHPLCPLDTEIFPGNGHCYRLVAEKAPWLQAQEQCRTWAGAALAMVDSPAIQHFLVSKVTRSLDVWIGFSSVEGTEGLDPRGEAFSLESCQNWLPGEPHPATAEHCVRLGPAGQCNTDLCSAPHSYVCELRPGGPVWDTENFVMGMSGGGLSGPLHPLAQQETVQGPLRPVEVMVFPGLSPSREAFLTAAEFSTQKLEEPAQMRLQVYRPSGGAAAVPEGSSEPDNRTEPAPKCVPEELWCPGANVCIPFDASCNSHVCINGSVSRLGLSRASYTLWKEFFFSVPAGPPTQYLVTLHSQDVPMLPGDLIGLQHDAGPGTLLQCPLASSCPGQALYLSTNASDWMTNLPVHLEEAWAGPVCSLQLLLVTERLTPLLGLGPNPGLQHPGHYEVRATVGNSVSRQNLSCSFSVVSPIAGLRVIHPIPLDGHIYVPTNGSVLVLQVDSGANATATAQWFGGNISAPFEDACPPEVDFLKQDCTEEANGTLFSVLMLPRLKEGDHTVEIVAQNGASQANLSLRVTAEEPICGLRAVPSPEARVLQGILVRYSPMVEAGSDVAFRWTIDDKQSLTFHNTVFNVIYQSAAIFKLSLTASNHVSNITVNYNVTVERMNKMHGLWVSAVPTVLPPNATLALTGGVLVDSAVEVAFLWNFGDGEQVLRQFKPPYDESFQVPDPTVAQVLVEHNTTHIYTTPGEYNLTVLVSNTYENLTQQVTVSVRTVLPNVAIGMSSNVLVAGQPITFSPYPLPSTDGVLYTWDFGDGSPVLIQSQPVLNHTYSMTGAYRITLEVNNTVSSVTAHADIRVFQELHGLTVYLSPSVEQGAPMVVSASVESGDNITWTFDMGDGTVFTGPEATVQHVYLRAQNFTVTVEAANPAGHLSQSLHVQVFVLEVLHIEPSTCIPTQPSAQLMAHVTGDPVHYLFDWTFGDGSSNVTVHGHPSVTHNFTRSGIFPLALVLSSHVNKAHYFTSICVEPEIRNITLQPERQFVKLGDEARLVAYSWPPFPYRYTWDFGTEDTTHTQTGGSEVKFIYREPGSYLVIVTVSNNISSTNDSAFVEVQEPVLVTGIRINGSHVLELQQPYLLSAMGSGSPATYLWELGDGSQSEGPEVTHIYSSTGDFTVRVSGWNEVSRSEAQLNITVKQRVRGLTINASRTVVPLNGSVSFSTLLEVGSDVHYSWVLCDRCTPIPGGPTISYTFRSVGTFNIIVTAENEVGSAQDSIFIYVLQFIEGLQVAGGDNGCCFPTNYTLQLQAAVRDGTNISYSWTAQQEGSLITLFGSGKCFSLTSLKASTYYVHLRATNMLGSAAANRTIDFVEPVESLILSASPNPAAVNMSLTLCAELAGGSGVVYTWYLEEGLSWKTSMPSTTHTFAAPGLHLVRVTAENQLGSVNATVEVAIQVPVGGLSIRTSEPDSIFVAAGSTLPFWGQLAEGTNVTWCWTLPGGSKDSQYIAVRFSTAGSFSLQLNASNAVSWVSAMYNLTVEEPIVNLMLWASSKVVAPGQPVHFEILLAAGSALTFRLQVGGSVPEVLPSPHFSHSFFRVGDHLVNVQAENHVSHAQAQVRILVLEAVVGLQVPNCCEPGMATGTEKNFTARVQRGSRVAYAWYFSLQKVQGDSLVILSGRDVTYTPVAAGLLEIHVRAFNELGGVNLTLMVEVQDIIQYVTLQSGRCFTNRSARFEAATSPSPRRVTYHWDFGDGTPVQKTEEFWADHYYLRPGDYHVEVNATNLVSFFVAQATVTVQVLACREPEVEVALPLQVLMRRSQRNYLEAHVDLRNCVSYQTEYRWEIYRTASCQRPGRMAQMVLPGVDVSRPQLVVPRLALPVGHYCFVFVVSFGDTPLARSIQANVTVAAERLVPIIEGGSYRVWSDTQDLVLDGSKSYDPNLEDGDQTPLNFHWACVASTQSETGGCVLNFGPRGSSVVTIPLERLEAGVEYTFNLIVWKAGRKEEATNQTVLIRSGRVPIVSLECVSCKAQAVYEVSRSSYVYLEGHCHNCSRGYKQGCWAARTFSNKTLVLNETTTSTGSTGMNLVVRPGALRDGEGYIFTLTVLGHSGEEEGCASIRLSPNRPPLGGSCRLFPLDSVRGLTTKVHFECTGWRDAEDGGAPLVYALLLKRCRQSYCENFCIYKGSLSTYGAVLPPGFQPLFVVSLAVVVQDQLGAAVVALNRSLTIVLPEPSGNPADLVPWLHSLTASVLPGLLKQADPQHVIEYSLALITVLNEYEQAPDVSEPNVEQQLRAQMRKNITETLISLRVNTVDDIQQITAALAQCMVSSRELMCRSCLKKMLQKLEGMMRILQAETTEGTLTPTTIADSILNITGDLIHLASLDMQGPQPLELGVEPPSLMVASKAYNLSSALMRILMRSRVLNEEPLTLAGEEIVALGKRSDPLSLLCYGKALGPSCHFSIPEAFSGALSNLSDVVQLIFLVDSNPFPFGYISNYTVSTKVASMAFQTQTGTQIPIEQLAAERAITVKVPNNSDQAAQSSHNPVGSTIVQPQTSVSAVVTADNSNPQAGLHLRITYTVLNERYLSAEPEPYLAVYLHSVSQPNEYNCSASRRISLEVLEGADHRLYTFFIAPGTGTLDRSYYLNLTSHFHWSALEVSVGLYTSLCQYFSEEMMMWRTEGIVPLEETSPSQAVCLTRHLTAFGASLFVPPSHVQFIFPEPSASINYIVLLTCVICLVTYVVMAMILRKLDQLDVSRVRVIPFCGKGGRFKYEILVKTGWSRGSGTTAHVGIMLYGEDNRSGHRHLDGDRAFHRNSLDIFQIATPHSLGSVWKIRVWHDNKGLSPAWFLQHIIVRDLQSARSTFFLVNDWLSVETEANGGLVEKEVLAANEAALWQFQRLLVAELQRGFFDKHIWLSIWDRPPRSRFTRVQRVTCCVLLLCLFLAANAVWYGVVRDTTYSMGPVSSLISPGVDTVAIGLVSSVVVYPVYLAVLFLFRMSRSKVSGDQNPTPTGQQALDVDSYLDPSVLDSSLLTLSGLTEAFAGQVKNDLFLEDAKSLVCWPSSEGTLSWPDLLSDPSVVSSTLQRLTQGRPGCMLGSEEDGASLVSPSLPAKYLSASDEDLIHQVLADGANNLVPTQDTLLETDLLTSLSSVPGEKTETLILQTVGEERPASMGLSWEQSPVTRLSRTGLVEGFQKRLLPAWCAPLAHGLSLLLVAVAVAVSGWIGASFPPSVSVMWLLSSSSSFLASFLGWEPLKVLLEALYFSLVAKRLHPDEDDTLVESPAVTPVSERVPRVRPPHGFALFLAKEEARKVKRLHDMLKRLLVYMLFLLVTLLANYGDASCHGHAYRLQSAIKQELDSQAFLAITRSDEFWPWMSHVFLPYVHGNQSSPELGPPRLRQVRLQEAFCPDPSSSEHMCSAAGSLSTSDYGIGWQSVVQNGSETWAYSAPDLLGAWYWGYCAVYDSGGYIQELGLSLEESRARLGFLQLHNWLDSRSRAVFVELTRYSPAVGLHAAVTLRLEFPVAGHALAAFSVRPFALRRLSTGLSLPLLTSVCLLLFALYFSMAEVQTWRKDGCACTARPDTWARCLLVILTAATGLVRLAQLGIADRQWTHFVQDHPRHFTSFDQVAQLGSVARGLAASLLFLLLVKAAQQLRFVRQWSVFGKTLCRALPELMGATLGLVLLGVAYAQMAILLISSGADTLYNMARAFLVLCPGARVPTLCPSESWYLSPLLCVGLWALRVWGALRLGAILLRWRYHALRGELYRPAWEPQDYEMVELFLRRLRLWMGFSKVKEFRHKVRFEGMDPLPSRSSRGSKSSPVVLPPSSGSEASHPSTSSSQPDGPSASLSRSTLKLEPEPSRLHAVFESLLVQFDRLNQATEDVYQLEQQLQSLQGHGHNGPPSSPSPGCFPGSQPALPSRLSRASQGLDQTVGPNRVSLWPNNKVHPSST

binding | Binder
binds | nicotinamide nucleotide transhydrogenase (Nnt) (protein, UniProt Q61941 44-1086) CKSPVKPGIPYKQLTVGVPKEIFQNEKRVALSPAGVQALVKQGFNVVVESGAGEASKFPDDLYRAAGAQIQGMKEVLASDLVVKVRAPMVNPTLGAHEADFLKPSGTLISFIYPAQNPDLLNKLSERKTTVLAMDQVPRVTIAQGYDALSSMANISGYKAVVLAANHFGRFFTGQITAAGKVPPAKILIVGGGVAGLASAGAAKSMGAVVRGFDTRAAALEQFKSLGAEPLEVDLKESGEGQGGYAKEMSKEFIEAEMKLFAQQCKEVDILISTALIPGKKAPVLFSKEMIESMKEGSVVVDLAAEAGGNFETTKPGELYVHKGITHIGYTDLPSRMATQASTLYSNNITKLLKAISPDKDNFHFEVKDDFDFGTMSHVIRGTVVMKDGKVIFPAPTPKNIPEEAPVKPKTVAELEAEKAGTVSMYTKTLTTASVYSAGLTGMLGLGIVAPNVAFSQMVTTFGLAGIIGYHTVWGVTPALHSPLMSVTNAISGLTAVGGLALMGGHFYPSTTSQSLAALATFISSVNIAGGFLVTQRMLDMFKRPTDPPEYNYLYLLPGGTFVGGYLAALYGGYNIEEIMYLGSGLCCVGALGGLSTQGTARLGNALGMIGVAGGLAATLGGLKPDPQLLAQMSGAMAMGGTIGLTIAKRIQISDLPQLVAAFHSLVGLAAVLTCMAEYIVEYPHFAMDATSNFTKIVAYLGTYIGGVTFSGSLVAYGKLQGILKSAPLLLPGRHALNAGLLAASVGGIIPFMADPSFTTGITCLGSVSGLSTLMGVTLTAAIGGADMPVVITVLNSYSGWALCAEGFLLNNNLLTIVGALIGSSGAILSYIMCVAMNRSLANVILGGYGTTSTAGGKPMEISGTHTEINLDNAVEMIREANSIVITPGYGLCAAKAQYPIADLVKMLTEQGKKVRFGIHPVAGRMPGQLNVLLAEAGVPYDIVLEMDEINSDFPDTDLVLVIGANDTVNSAAQEDPNSIIAGMPVLEVWKSKQVIVMKRSLGVGYAAVDNPIFYKPNTAMLLGDAKKTCDALQAKVRESYQK
binds | Polycystin-2 (protein, UniProt O35245 1-966) MVNSRRVQPQPPGDAGRSPAPRASGPGRLVAGGAGLAVPGGLGEQRGLEIEMERIRQAAARDPPAGASASPSPPLSSCSRQAWSRDNPGFEAEEDDDDDEVEGEEGGMVVEMDVEWRPGSRRSASSSAVSSVGARGRGLGSYRGAAHLSGRRRRLEDQGAQCPSPAGGGDPLHRHLPLEGQPPRVAWAERLVRGLRGLWGTRLMEESNANREKYLKSVLRELVTYLFFLVVLCILTYGMMSSNVYYYTRTLSQLFIDTPVSKTEKTNFKTLSSMEDFWKFTEGSFLDGLYWKAQTSNHTQADNRSFIFYENLLLGVPRLRQLRVRNGSCSIPQDLRDEIKECYDVYSVSSEDRAPFGPRNGTAWMYTSEKELNGSSHWGIIASYSGAGYYLDLSRTREETAAQLAGLRRNFWLDRGTRAAFIDFSVYNANINLFCVVRLLAEFPATGGVVPSWQFQPVKLIRYVTAFDFFLAACEIIFCFFIIYYVVEEILEIRIHRLSYFRSFWNCLDVVIVVLSVVAMVINIYRMSNAEGLLQFLEDQNSFPNFEHVAYWQIQFNNISAVMVFLVWIKLFKFINFNRTMSQLSTTMSRCAKDLFGFTIMFSIIFLAYAQLAYLVFGTQVDDFSTFQECIFTQFRIILGDINFAEIEEANRVLGPLYFTTFVFFMFFILLNMFLAIINDSYSEVKSDLAQQKAEMELSDLIRKGCQKALVKLKLKRNTVDAISESLRQGGGKLNFDELRQDLKGKGHTDAEIEAIFTKYDQDGDQELTEREHQQMRDDLEKEREDLDLEHSSLPRPMSSRSFPRSLDDSEEEDDEDSGHSSRRRGSISSGVSYEEFQVLVRRVDRMEHSIGSIVSKIDAVIVKLEIMERAKLKRREVLGRLLDGVAEDARLGRDSEIHREQMERLVREELERWESDDAASQTGHGVSTQVGLGGQPHPRNPRPPSSQSAEGLEGGGGNGSANVHA

Source: paper doi:10.1101/2022.04.08.487705
